{"source": "PubChem BioAssay AID2685", "about": "(National Center for Advancing Translational Sciences (NCATS), 2010)", "note": "The campaign covered roughly 320,000 compounds. About 2,100 (0.66%) were called active. Inconclusive means that the source gave no clear call. Such entries were picked first, then a sample of the others. The call rests on the fitted dose curve; in most records, active means well fitted inhibition curve with a large enough effect in the signal ratio, with a control signal flat (not every such curve was filed as active); inconclusive means small, poorly fitted or top-dose-only effect, or effect the other way, or a change in a side signal; inactive means flat fitted curve, though single readings scatter; the % refers to the signal ratio. Where the call is inconclusive, the potency comes from a doubtful curve fit. On the % scale 0 is the no-effect control and ±100 the full control effect; potency means the concentration at half of the fitted maximal effect."}
{"assay": "qHTS Assay for Lipid Storage Modulators in Drosophila S3 Cells", "conditions": "BODIPY lipid droplet fluorescence, 18-24 h, cells fed with added oleic acid; lipid storage change, negative = inhibition: at 46.1 µM (top of the series) unless noted", "outline": "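Laser-scanning cytometry quantifies lipid droplet accumulation (500–530 nm total intensity; droplet/cell object ratio) in oleic acid-fed (400 uM added) Drosophila S3 cells treated with a concentration series. 20 uM Triacsin C defined 100% inhibition.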"}
{"smiles": "CCC(=O)c1ccc(OCc2ccccc2)c(OC)c1", "Potency": "inconclusive: 25.9 µM [activator, partial curve, poor fit]"}
{"smiles": "Cc1ccc(NC(=O)N2CCCC2c2cccs2)cc1", "note": "(centres undefined)", "lipid storage change, negative = inhibition": "inconclusive: 24.5%"}
{"smiles": "O=C(CCCc1ccccc1)NCCc1ccccc1", "lipid storage change, negative = inhibition": "inactive"}
{"smiles": "Fc1ccc(-c2onc3ccc(C4OCCO4)cc23)cc1", "lipid storage change, negative = inhibition": "inconclusive: -22.1%"}
{"smiles": "Cc1nn(-c2ccc(F)cc2)c(N)c1C1(O)C(=O)Nc2ccccc21", "note": "(centres undefined)", "lipid storage change, negative = inhibition": "inconclusive: -61.1%"}
{"smiles": "O=C(CN(C1CCCCC1)C1CCCCC1)N1CCc2ccccc2C1", "lipid storage change, negative = inhibition": "inconclusive: 260%"}
{"smiles": "COC(=O)Nc1nc(C)c(C(=O)N(C)C)s1", "lipid storage change, negative = inhibition": "inconclusive: -10.3%"}
{"smiles": "CC(=O)c1ccc(NC(=O)CN2CCCCCC2)cc1", "lipid storage change, negative = inhibition": "inconclusive: -16.2%"}
{"smiles": "O=C(NCCCN1CCCC1=O)Nc1ccc([N+](=O)[O-])cc1", "lipid storage change, negative = inhibition": "inconclusive: 55.6%"}
{"smiles": "Cc1ccc(NC(=O)n2ncc3c(C)cccc32)c(C)c1", "lipid storage change, negative = inhibition": "inconclusive: 9.95%"}
{"smiles": "COc1ccc(S(=O)(=O)N/N=C(/C)c2ccncc2)cc1OC", "Potency": "inconclusive: 0.82 µM [activator, full curve]"}
{"smiles": "Cc1nn(Cc2ccc(C(=O)NC3CCCCC3)o2)c(C)c1Br", "Potency": "inconclusive: 14.6 µM [activator, partial curve, poor fit]"}
{"smiles": "COc1cc2c(cc1OC)-c1cc3ccc(OC)c(OC)c3c[n+]1CC2", "lipid storage change, negative = inhibition": "inconclusive: 15.3%"}
{"smiles": "O=C(COc1ccc(C2SCCS2)cc1)NNC(=O)C(Cl)Cl", "lipid storage change, negative = inhibition": "inconclusive: 12.5%"}
{"smiles": "O=C(/C=C/c1ccccc1F)N1CCN(c2ccccn2)CC1", "lipid storage change, negative = inhibition": "inconclusive: -6.22%"}
{"smiles": "O=C(CC1SC(=O)NC1=O)Nc1ccc(Cl)cc1", "note": "(centres undefined)", "lipid storage change, negative = inhibition": "inconclusive: 4.78%"}
{"smiles": "COC(=O)c1ccc(C(=S)N2CCOCC2)cc1", "Potency": "inconclusive: 4.11 µM [falling, partial curve, poor fit]"}
{"smiles": "Cc1cccc(N2NC(=O)/C(=C/c3ccc(-c4ccc(Cl)c(C(=O)O)c4)o3)C2=O)c1", "lipid storage change, negative = inhibition": "inconclusive: 2.69%"}
{"smiles": "O=C(N/N=C/c1oc(O)c2ccccc12)c1ccccc1", "Potency": "inconclusive: 5.17 µM [falling, single point]"}
{"smiles": "Cc1ccc(SC(CC(=O)c2ccc(C(C)(C)C)cc2)C(=O)O)cc1", "note": "(centres undefined)", "Potency": "inconclusive: 0.651 µM [cytotoxic, full curve]"}
{"smiles": "O=S(=O)(c1ccc(Cl)nc1)N1CCN(Cc2ccc3c(c2)OCO3)CC1", "lipid storage change, negative = inhibition": "inconclusive: 110%"}
{"smiles": "CC(C)(C)c1nnc(NC(=O)CCS(=O)(=O)c2ccccc2)s1", "Potency": "inconclusive: 0.517 µM [activator, full curve, poor fit]"}
{"smiles": "CC(C)NC(=O)C(=O)NC1CCCCCC1", "lipid storage change, negative = inhibition": "inconclusive: -18%"}
{"smiles": "Cc1cccc(C(=O)N2CCN(Cc3ccc4c(c3)OCO4)CC2)c1", "lipid storage change, negative = inhibition": "inconclusive: -4.92%"}
{"smiles": "O=C(Nc1ccccc1C(=O)Nc1ccc(Cl)cc1)c1cccnc1", "lipid storage change, negative = inhibition": "inconclusive: 19.6%"}
{"smiles": "COc1ccc(/C=C/C=N/NC(=O)COc2ccc(OC)cc2)cc1", "Potency": "inconclusive: 7.31 µM [activator, partial curve]"}
{"smiles": "CN(CC(=O)Nc1ccc(N2CCOCC2)cc1)C(=O)c1ccc(O)c(Cl)c1", "lipid storage change, negative = inhibition": "inconclusive: 24.5%"}
{"smiles": "COc1ccccc1C(=O)NCCC(=O)NCCOc1ccccc1", "lipid storage change, negative = inhibition": "inconclusive: -34.9%"}
{"smiles": "O=C(CCN1CCN(S(=O)(=O)c2cccc([N+](=O)[O-])c2)CC1)Nc1ccccc1F", "lipid storage change, negative = inhibition": "inconclusive: -54.6%"}
{"smiles": "COc1ccc(Br)cc1C(=O)Nc1ccc(C(=O)O)cc1", "lipid storage change, negative = inhibition": "inconclusive: -18.7%"}
{"smiles": "OCCOc1cccc(CN2CCC(CO)(CCOc3ccccc3)CC2)c1", "Potency": "inconclusive: 2.91 µM [falling, single point]"}
{"smiles": "COc1cc2c(cc1OC)CN(C(=O)CNS(=O)(=O)c1ccc(C)c(C)c1)CC2", "Potency": "inconclusive: 1.16 µM [activator, single point]"}
{"smiles": "COc1ccccc1/C=C/C(=O)NNC(=O)c1cccs1", "Potency": "inconclusive: 0.146 µM [activator, full curve]"}
{"smiles": "CCN(C(=O)COC(=O)c1cc(S(=O)(=O)Nc2c(C)n(C)n(-c3ccccc3)c2=O)ccc1Cl)C1CCCCC1", "lipid storage change, negative = inhibition": "inconclusive: 12%"}
{"smiles": "O=C(NCc1ccccc1)c1onc(CSc2nc3ccccc3[nH]2)c1C(=O)NCc1ccccc1", "Potency": "active: 14.6 µM"}
{"smiles": "CCN(CC)C(=O)CSc1nc(O)c(Cc2ccc(OC)cc2)c(=O)[nH]1", "lipid storage change, negative = inhibition": "inconclusive: 32.3%"}
{"smiles": "O=C(Nc1ccc2c(c1)OCO2)C1CC(c2ccccc2Cl)=NO1", "note": "(centres undefined)", "lipid storage change, negative = inhibition": "inconclusive: 2.93%"}
{"smiles": "O=C(Cc1ccccc1)NCC(=O)OCC(=O)c1cccs1", "lipid storage change, negative = inhibition": "inconclusive: 98.7%"}
{"smiles": "Cn1c(SCC(=O)NC2CC2)nnc1C(F)(F)F", "lipid storage change, negative = inhibition": "inconclusive: -5.34%"}
{"smiles": "Cc1cccc2cc(CN(CC3CCCO3)C(=S)Nc3ccccc3)c(=O)[nH]c12", "note": "(centres undefined)", "lipid storage change, negative = inhibition": "inconclusive: -26.2%"}
{"smiles": "COc1nc(N)c(C#N)c(-c2ccc(N(C)CCC#N)cc2)c1C#N", "lipid storage change, negative = inhibition": "inconclusive: 13.1%"}
{"smiles": "CCCCOC(=O)c1ccc(N2C(=O)CC(N3CCN(C/C=C/c4ccccc4)CC3)C2=O)cc1", "note": "(centres undefined)", "lipid storage change, negative = inhibition": "inconclusive: -9.23%"}
{"smiles": "Cc1nn(-c2ccccc2)c2sc(C(=O)NCCN3CCOCC3)cc12", "Potency": "inconclusive: 1.84 µM [activator, partial curve]"}
{"smiles": "Cc1ccc(C(=O)C(C)OC(=O)CNC(=O)c2ccc(Br)o2)cc1", "note": "(centres undefined)", "lipid storage change, negative = inhibition": "inconclusive: 21.2%"}
{"smiles": "Cc1cc(C)cc(N(CC(=O)Nc2ccccc2-c2ccccc2)S(=O)(=O)c2ccccc2)c1", "lipid storage change, negative = inhibition": "inconclusive: -0.608%"}
{"smiles": "CCN(CC)c1nc(N2CCOCC2)nc2ccccc12", "lipid storage change, negative = inhibition": "inconclusive: -7.07%"}
{"smiles": "S=c1[nH]cc(-c2ccccc2)n1-c1ccccc1Cl", "Potency": "inconclusive: 0.092 µM [activator, full curve, poor fit]"}
{"smiles": "O=C(COC(=O)/C=C/c1ccccc1F)Nc1nnc(-c2ccccc2)o1", "lipid storage change, negative = inhibition": "inconclusive"}
{"smiles": "Cc1nc2[nH]c(=O)c3c(n2n1)NC1=C(C(=O)CC(C)(C)C1)C3c1ccccc1", "note": "(centres undefined)", "Potency": "inconclusive: 25.9 µM [falling, single point]"}
{"smiles": "Cc1ccc(NC(=O)c2nc[nH]c2C(=O)N[C@@H](C)c2ccccc2)cc1", "Potency": "inconclusive: 0.092 µM [falling, full curve, poor fit]"}
{"smiles": "CC(C)C(=O)Nc1ccc(N2CCCC2)c(Cl)c1", "lipid storage change, negative = inhibition": "inconclusive: 13.8%"}
{"smiles": "CCCS(=O)(=O)c1c(S(=O)(=O)CCC)c2c(N)cccn2c1C(=O)c1ccc(Br)cc1", "lipid storage change, negative = inhibition": "inconclusive: -9.71%"}
{"smiles": "CCOC(=O)c1[nH]c(C)c(C(=O)Nc2ccc(C)c(C)c2)c1C", "lipid storage change, negative = inhibition": "inconclusive: 5.26%"}
{"smiles": "N#C/C(=C/c1ccc(Oc2ccc([N+](=O)[O-])cn2)cc1)C(=O)N1CCOCC1", "Potency": "inconclusive: 25.9 µM [falling, partial curve, poor fit]"}
{"smiles": "CCCCSc1nc(C)c(CC(=O)OC)c(=O)[nH]1", "lipid storage change, negative = inhibition": "inconclusive: 20%"}
{"smiles": "Cc1ccnc(NS(=O)(=O)c2ccc(NC(=O)/C=C/c3cccs3)cc2)n1", "lipid storage change, negative = inhibition": "inconclusive: 3.23%"}
{"smiles": "CCOC(=O)C1CCN(C(=O)CC(NS(=O)(=O)c2ccc(OC)cc2)C(C)C)CC1", "note": "(centres undefined)", "lipid storage change, negative = inhibition": "inactive"}
{"smiles": "Cc1ccc(OCCC(=O)NNC(=O)c2ccccc2F)cc1", "lipid storage change, negative = inhibition": "inconclusive: 8.98%"}
{"smiles": "COc1cc(OC)cc(C(=O)Nn2cc(C(=O)N3CCN(C)CC3)c3ccccc3c2=O)c1", "lipid storage change, negative = inhibition": "inconclusive: 56.1%"}
{"smiles": "CC(=O)c1ccc(S(=O)(=O)N(C)CCCC(=O)N(C)Cc2c(F)cccc2Cl)cc1", "Potency": "inconclusive: 18.4 µM [falling, partial curve, poor fit]"}
{"smiles": "CC(=O)NCCn1c(SCc2cc(=O)n3cc(Cl)ccc3n2)nc2ccccc2c1=O", "lipid storage change, negative = inhibition": "inconclusive: -14.7%"}
{"smiles": "CSCCC(NC(=O)c1ccccc1Br)C(=O)NNC(=O)c1csc(N2CCOCC2)n1", "note": "(centres undefined)", "lipid storage change, negative = inhibition": "inconclusive: 8.9%"}
{"smiles": "O=C(CNC(=O)c1ccc(Br)o1)NNC(=O)c1cccc(Cl)c1", "lipid storage change, negative = inhibition": "inconclusive: 31.6%"}
{"smiles": "O=C1CSC(=S)N1c1cccnc1", "lipid storage change, negative = inhibition": "inconclusive: 18%"}
{"smiles": "C/C(=C1/SC(N2CCOCC2)=NC1=O)c1ccc(Br)cc1", "Potency": "inconclusive: 29.1 µM [falling, single point]"}
{"smiles": "C=CCn1c(=O)c2c(nc3n2CC(C)CN3CCc2ccccc2)n(C)c1=O", "note": "(centres undefined)", "lipid storage change, negative = inhibition": "inconclusive: -61%"}
{"smiles": "O=C(c1ccc(NS(=O)(=O)c2ccc(Cl)c(Cl)c2)cc1)N1CCOCC1", "lipid storage change, negative = inhibition": "inconclusive"}
{"smiles": "C=CCc1ccc(O)c(-c2ccc(O)c(CC=C)c2)c1", "Potency": "inconclusive: 18.4 µM [cytotoxic, single point]"}
{"smiles": "COc1cc([C@@H]2c3cc4c(cc3[C@H](O)[C@H]3COC(=O)[C@H]23)OCO4)cc(OC)c1OC", "lipid storage change, negative = inhibition": "inconclusive: -2.74%"}
{"smiles": "O=c1nc(/C=C/c2ccccc2C(F)(F)F)cc(C(F)(F)F)[nH]1", "Potency": "active: 0.517 µM"}
{"smiles": "O=C(COC(=O)CCSc1ccccc1Cl)NCc1ccco1", "lipid storage change, negative = inhibition": "inconclusive: -35.9% [cytotoxic] [at 0.00295 µM]"}
{"smiles": "C=CCNC(=S)NNC(=O)c1ccc(Br)o1", "lipid storage change, negative = inhibition": "inconclusive: -1.72%"}
{"smiles": "O=C(Nc1nc(-c2ccco2)cs1)c1ccccc1", "lipid storage change, negative = inhibition": "inconclusive: 5.04%"}
{"smiles": "O=C(/C=C/c1ccccc1)N/C(=C\\c1ccco1)C(=O)O", "lipid storage change, negative = inhibition": "inconclusive: -27.5%"}
{"smiles": "O=C(CS(=O)(=O)c1cn(Cc2ccc(Cl)cc2)c2ccccc12)N1CCOCC1", "lipid storage change, negative = inhibition": "inconclusive: 26.7%"}
{"smiles": "CS(=O)(=O)N(CC(=O)N1CCC(C(N)=O)CC1)C1CCCCC1", "lipid storage change, negative = inhibition": "inconclusive: -3.92%"}
{"smiles": "O=C1c2ccccc2C(=O)N1c1nc2nccc(-c3ccccc3)n2n1", "lipid storage change, negative = inhibition": "inconclusive: 0.303%"}
{"smiles": "COC(=O)c1ccc2c(=O)n(CCCCCC(=O)NCCNC(C)=O)c(=O)[nH]c2c1", "lipid storage change, negative = inhibition": "inconclusive: -52.9%"}
{"smiles": "CCOC(=O)c1nnn(-c2nonc2-n2cccc2)c1CN1CCC(C)CC1", "lipid storage change, negative = inhibition": "inconclusive: -18.5%"}
